Measured values: US20100113421A1, “NON-NUCLEOSIDE REVERSE TRANSCRIPTASE INHIBITORS” (priority 2006, published 2010)
Some of these results come from one statement about several compounds together.

Key:
Type in all cases: biochemical
HIV-1 RT enzyme [1] = molecular target: T1, HIV-1 RT enzyme (Human immunodeficiency virus type 1 group M subtype B, UniProt P04585); assay: SPA assay for inhibition of HIV reverse transcriptase (wild type); conditions: read-out: IC50
[2] = molecular target: T2, HIV reverse transcriptase with Y181C mutation (Human immunodeficiency virus type 1 group M subtype B, UniProt P04585, Y768C); assay: SPA assay, mutant reverse transcriptase Y181C
T2 construct: against mutant HIV reverse transcriptase; made in house

HIV-1 RT enzyme [3] = molecular target: T1, HIV-1 RT enzyme; assay: ECL assay for inhibition of HIV reverse transcriptase (wild type)
[4] = molecular target: T2, HIV reverse transcriptase with Y181C mutation; assay: ECL assay, mutant reverse transcriptase Y181C
[5] = Y181C mutant RT, read-out: IC50 in the Y181C assay
[6] = read-out: IC50 in the Y181C assay, Y181C mutant RT

Compound	IC50 (HIV-1 RT enzyme [1])	IC50 (HIV-1 RT enzyme [3]; read-out: IC50)	IC50 [4, 5]	other results
Cc1c(C(=O)N(C)Cc2ccc(Cl)cc2Cl)[nH]c(C(=O)NCc2nccs2)c1S(=O)(=O)c1ccccc1 [Example 76, N-(2,4-dichlorobenzyl)-N,3-dimethyl-4-(phenylsulfonyl)-N′-(1,3-thiazol-2-ylmethyl)-1H-pyrrole-2,5-dicarboxamide]	< 5 µM	–	–	IC50 [2, 5]: < 8 µM
Cc1c(C(=O)N(C)Cc2ccc3ncccc3c2)[nH]c(C(N)=O)c1S(=O)(=O)c1cc(Cl)cc(Cl)c1 [Example 54, 4-[(3,5-dichlorophenyl)sulfonyl]-N,3-dimethyl-N-(6-quinolinylmethyl)-1H-pyrrole-2,5-dicarboxamide]	< 5 µM	–	–	IC50 [2, 6]: < 8 µM
Cc1c(C(=O)N(C)Cc2ccncc2Cl)[nH]c(C(N)=O)c1S(=O)(=O)c1ccccc1 [Example 39, N-[(3-chloro-4-pyridinyl)methyl]-N,3-dimethyl-4-(phenylsulfonyl)-1H-pyrrole-2,5-dicarboxamide]	< 5 µM	–	–	IC50 [2, 5]: < 8 µM
Cc1c(C(=O)N(C)Cc2ccccc2Cl)[nH]c(C(N)=O)c1S(=O)(=O)c1ccccc1 [Example 8, N-(2-chlorobenzyl)-N,3-dimethyl-4-(phenylsulfonyl)-1H-pyrrole-2,5-dicarboxamide]	< 5 µM	–	–	IC50 [2, 5]: < 8 µM
Cc1c(C(=O)N(C)Cc2ccc(Cl)cc2Cl)[nH]c(C(=O)NCc2cccnc2)c1S(=O)(=O)c1ccccc1 [Example 75, N-(2,4-dichlorobenzyl)-N,3-dimethyl-4-(phenylsulfonyl)-N′-(3-pyridinylmethyl)-1H-pyrrole-2,5-dicarboxamide]	< 5 µM	–	–	IC50 [2, 5]: < 8 µM
CNC(=O)c1[nH]c(C(=O)N(C)Cc2ccc(Cl)cc2Cl)c(C)c1S(=O)(=O)c1ccccc1 [Example 72, N-(2,4-dichlorobenzyl)-N,N′,3-trimethyl-4-(phenylsulfonyl)-1H-pyrrole-2,5-dicarboxamide]	< 5 µM	–	–	IC50 [2, 5]: < 8 µM
Cc1c(C(=O)N(C)Cc2ccc(F)cc2Cl)[nH]c(C(N)=O)c1S(=O)(=O)c1ccccc1 [Example 4, N-(2-Chloro-4-fluorobenzyl)-N,3-dimethyl-4-(phenylsulfonyl)-1H-pyrrole-2,5-dicarboxamide]	< 5 µM	–	–	IC50 [2, 5]: < 8 µM
Cc1c(C(=O)N(C)Cc2ccc3ncccc3c2)[nH]c(C(N)=O)c1S(=O)(=O)c1cc(Cl)cc(C#N)c1 [Example 57]	< 5 µM	–	–	IC50 [2, 6]: < 8 µM
Cc1c(C(=O)N(C)Cc2ccccc2Cl)[nH]c(C(=O)NCc2ccccn2)c1S(=O)(=O)N1CCCC1 [Example 117, N-(2-chlorobenzyl)-N,3-dimethyl-N′-(2-pyridinylmethyl)-4-(1-pyrrolidinylsulfonyl)-1H-pyrrole-2,5-dicarboxamide]	< 5 µM	–	–	IC50 [2, 5]: < 8 µM
Cc1c(C(=O)N(C)Cc2ccc(S(C)(=O)=O)cc2Cl)[nH]c(C(N)=O)c1S(=O)(=O)c1ccccc1 [Example 15, N-(2-chloro-4-methylsulfonylbenzyl)-N,3-dimethyl-4-(phenylsulfonyl)-1H-pyrrole-2,5-dicarboxamide]	< 5 µM	–	–	IC50 [2, 5]: < 8 µM
Cc1cc(C)cc(S(=O)(=O)c2c(C(N)=O)[nH]c(C(=O)N(C)Cc3ccc4ncccc4c3)c2C)c1 [Example 40, 4-[(3,5-Dimethylphenyl)sulfonyl]-N,3-dimethyl-N-(6-quinolinylmethyl)-1H-pyrrole-2,5-dicarboxamide]	–	< 5 µM	< 8 µM	–
Cc1c(C(=O)N(C)Cc2ccccc2Cl)[nH]c(C(N)=O)c1S(=O)(=O)c1cc(F)cc(Cl)c1 [Example 30, N-(2-chlorobenzyl)-N,3-dimethyl-4-(3-chloro-5-fluorophenylsulfonyl)-1H-pyrrole-2,5-dicarboxamide]	–	< 5 µM	< 8 µM	–
Cc1c(C(=O)N(C)Cc2ccc(Cl)cc2F)[nH]c(C(N)=O)c1S(=O)(=O)c1cccc(F)c1 [Example 18, N-(4-chloro-2-fluorobenzyl)-N,3-dimethyl-4-(3-fluorophenylsulfonyl)-1H-pyrrole-2,5-dicarboxamide]	–	< 5 µM	< 8 µM	–
CC(C)c1c(C(=O)N(C)Cc2ccc(Cl)cc2Cl)[nH]c(C(N)=O)c1S(=O)(=O)c1ccccc1 [Example 63, N-(2,4-dichlorobenzyl)-3-isopropyl-N-methyl-4-(phenylsulfonyl)-1H-pyrrole-2,5-dicarboxamide]	–	< 5 µM	< 8 µM	–
Cc1cc(C)cc(S(=O)(=O)c2c(C(N)=O)[nH]c(C(=O)N3CCCc4ccccc4C3)c2C)c1 [Example 79, 4-Methyl-3-(3,5-dimethylphenylsulfonyl)-5-(1,3,4,5-tetrahydro-2H-2-benzazepine-2-ylcarbonyl)-1H-pyrrole-2-carboxamide]	–	< 5 µM	< 8 µM	–
CCc1c(C(=O)N(C)Cc2ccc3ncccc3c2)[nH]c(C(N)=O)c1S(=O)(=O)c1ccccc1 [Example 60, 3-ethyl-N-methyl-4-(phenylsulfonyl)-N-(6-quinolinylmethyl)-1H-pyrrole-2,5-dicarboxamide]	–	< 5 µM	< 8 µM	–
Cc1c(C(=O)N2CCCc3sccc3C2)[nH]c(C(N)=O)c1S(=O)(=O)c1cc(Cl)cc(Cl)c1 [Example 84, 3-[(3,5-dichlorophenyl)sulfonyl]-4-methyl-5-(4,6,7,8-tetrahydro-5H-thieno[3,2-c]azepin-5-ylcarbonyl)-1H-pyrrole-2-carboxamide]	–	< 5 µM	< 8 µM	–
Cc1cc(C)cc(S(=O)(=O)c2c(C(N)=O)[nH]c(C(=O)N(C)Cc3ccnc(N)c3)c2C(C)C)c1 [Example 102, N5-[(2-aminopyridin-4-yl)methyl]-3-[(3,5-dimethylphenyl)sulfonyl]-4-isopropyl-N5-methyl-1H-pyrrole-2,5-dicarboxamide]	–	< 5 µM	< 8 µM	–
Cc1cc(C)cc(S(=O)(=O)c2c(C(N)=O)[nH]c(C(=O)N(C)Cc3ccccc3F)c2C)c1 [Example 24, N-(2-fluorobenzyl)-N,3-dimethyl-4-(3,5-dimethylphenylsulfonyl)-1H-pyrrole-2,5-dicarboxamide]	–	< 5 µM	< 8 µM	–
Cc1cc(C)cc(S(=O)(=O)c2c(C(N)=O)[nH]c(C(=O)N3CCCc4sc(S(C)(=O)=O)cc4C3)c2C)c1 [Example 98, 3-[(3,5-Dimethylphenyl)sulfonyl]-4-methyl-5-[(2-(methylsulfonyl)-4,6,7,8-tetrahydro-5H-thieno[3,2-c]azepin-5-yl)carbonyl]-1H-pyrrole-2-carboxamide]	–	< 5 µM	< 8 µM	–
Cc1cc(C)cc(S(=O)(=O)c2c(C(N)=O)[nH]c(C(=O)N3CCCc4sccc4C3)c2C)c1 [Example 80, 3-[(3,5-Dimethylphenyl)sulfonyl]-4-methyl-5-(4,6,7,8-tetrahydro-5H-thieno[3,2-c]azepin-5-ylcarbonyl)-1H-pyrrole-2-carboxamide]	–	< 5 µM	< 8 µM	–
CCCCc1c(C(=O)N(C)Cc2ccc3ncccc3c2)[nH]c(C(N)=O)c1S(=O)(=O)c1cccc(C)c1 [Example 67, 3-butyl-N-methyl-4-(3-methylphenylsulfonyl)-N-(6-quinolinylmethyl)-1H-pyrrole-2,5-dicarboxamide]	–	< 5 µM	< 8 µM	–
Cc1cc(C)cc(S(=O)(=O)c2c(C(N)=O)[nH]c(C(=O)N3CCCc4ccc(O)cc4C3)c2C)c1 [Example 90, 3-[(3,5-dimethylphenyl)sulfonyl]-4-methyl-5-(8-hydroxy-1,3,4,5-tetrahydro-2H-2-benzazepin-2-ylcarbonyl)-1H-pyrrole-2-carboxamide]	–	< 5 µM	< 8 µM	–
COc1ccc2c(c1)CN(C(=O)c1[nH]c(C(N)=O)c(S(=O)(=O)c3cc(C)cc(C)c3)c1C)CCC2 [Example 89, 3-[(3,5-dimethylphenyl)sulfonyl]-4-methyl-5-(8-methoxy-1,3,4,5-tetrahydro-2H-2-benzazepin-2-ylcarbonyl)-1H-pyrrole-2-carboxamide]	–	< 5 µM	< 8 µM	–
Cc1c(C(=O)N(C)Cc2cc3cccnc3cc2Cl)[nH]c(C(N)=O)c1S(=O)(=O)c1cc(F)cc(Cl)c1 [Example 53, 4-[(3-chloro-5-fluorophenyl)sulfonyl]-N-[(7-chloro-6-quinolinyl)methyl]-N,3-dimethyl-1H-pyrrole-2,5-dicarboxamide]	–	< 5 µM	< 8 µM	–
Cc1c(C(=O)N(C)Cc2ccccc2F)[nH]c(C(N)=O)c1S(=O)(=O)c1cc(Cl)cc(Cl)c1 [Example 33, N-(2-fluorobenzyl)-N,3-dimethyl-4-(3,5-dichlorophenylsulfonyl)-1H-pyrrole-2,5-dicarboxamide]	–	–	–	IC50 (HIV-1 RT enzyme [3]): < 5 µM; IC50 [4, 6]: < 8 µM
CCc1c(C(=O)N(C)Cc2ccc(Cl)cc2Cl)[nH]c(C(N)=O)c1S(=O)(=O)c1ccccc1 [Example 59, N-(2,4-dichlorobenzyl)-3-ethyl-N-methyl-4-(phenylsulfonyl)-1H-pyrrole-2,5-dicarboxamide]	–	< 5 µM	< 8 µM	–
Cc1cc(C)cc(S(=O)(=O)c2c(C(N)=O)[nH]c(C(=O)N(C)Cc3cc4cccnc4cc3Cl)c2C)c1 [Example 48, N-[(7-chloro-6-quinolinyl)methyl]-4-[(3,5-dimethylphenyl)sulfonyl]-N,3-dimethyl-1H-pyrrole-2,5-dicarboxamide]	–	< 5 µM	< 8 µM	–
CC(C)c1c(C(=O)N(C)Cc2ccccc2)[nH]c(C(N)=O)c1S(=O)(=O)c1ccccc1 [Example 58, N-Benzyl-3-isopropyl-N-methyl-4-(phenylsulfonyl)-1H-pyrrole-2,5-dicarboxamide]	–	< 5 µM	< 8 µM	–
CC(C)c1c(C(=O)N(C)Cc2ccnc(N)c2)[nH]c(C(N)=O)c1S(=O)(=O)c1ccccc1 [Example 101]	–	< 5 µM	< 8 µM	–
